# Experimental data published in the supplement of paper PMC6411743.
# Sequences of proteins named here, by UniProt entry; tags and fusion partners are left off. A change or cut given only in a name is not applied to a line headed by its entry.
# UniProt Q96PZ0: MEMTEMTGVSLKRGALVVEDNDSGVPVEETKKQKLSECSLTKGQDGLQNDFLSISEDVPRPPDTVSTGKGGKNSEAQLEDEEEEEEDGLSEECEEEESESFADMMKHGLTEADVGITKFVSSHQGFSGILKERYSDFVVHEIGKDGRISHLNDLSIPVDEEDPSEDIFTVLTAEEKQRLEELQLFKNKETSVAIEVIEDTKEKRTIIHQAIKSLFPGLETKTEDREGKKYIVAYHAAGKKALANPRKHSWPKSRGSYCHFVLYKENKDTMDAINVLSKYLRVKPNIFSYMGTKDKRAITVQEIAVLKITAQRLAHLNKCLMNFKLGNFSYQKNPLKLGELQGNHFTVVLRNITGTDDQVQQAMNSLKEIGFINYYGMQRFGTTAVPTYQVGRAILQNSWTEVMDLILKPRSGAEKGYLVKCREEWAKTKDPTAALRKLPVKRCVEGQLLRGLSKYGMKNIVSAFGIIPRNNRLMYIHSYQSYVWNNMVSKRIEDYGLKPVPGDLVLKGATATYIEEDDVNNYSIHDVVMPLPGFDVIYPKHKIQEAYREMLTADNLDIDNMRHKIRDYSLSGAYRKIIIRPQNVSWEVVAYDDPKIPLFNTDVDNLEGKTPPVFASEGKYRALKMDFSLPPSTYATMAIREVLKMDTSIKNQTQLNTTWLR
# UniProt Q9BV44: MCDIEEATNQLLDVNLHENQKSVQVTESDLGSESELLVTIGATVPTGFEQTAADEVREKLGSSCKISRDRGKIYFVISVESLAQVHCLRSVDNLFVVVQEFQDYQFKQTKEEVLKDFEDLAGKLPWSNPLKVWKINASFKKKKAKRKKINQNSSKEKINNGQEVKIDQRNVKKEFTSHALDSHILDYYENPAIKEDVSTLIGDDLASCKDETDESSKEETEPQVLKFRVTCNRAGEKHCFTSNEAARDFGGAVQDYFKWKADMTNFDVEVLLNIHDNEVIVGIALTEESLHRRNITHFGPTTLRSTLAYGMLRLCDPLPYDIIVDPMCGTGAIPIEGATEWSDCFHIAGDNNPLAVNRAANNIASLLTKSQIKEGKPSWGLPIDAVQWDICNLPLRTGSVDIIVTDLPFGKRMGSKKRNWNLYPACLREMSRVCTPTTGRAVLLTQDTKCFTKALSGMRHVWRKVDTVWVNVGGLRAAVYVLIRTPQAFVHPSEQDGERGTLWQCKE
# UniProt Q99961: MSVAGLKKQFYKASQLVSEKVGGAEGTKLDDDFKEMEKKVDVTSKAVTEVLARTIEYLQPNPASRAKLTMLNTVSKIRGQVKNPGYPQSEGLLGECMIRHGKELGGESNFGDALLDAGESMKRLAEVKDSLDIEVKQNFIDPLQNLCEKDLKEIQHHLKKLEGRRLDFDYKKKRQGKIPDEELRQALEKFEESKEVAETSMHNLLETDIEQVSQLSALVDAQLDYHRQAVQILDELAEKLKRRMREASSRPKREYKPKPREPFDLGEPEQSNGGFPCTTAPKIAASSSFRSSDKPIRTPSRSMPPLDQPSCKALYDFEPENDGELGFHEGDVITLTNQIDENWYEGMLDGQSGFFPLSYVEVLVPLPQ
# UniProt Q96T76: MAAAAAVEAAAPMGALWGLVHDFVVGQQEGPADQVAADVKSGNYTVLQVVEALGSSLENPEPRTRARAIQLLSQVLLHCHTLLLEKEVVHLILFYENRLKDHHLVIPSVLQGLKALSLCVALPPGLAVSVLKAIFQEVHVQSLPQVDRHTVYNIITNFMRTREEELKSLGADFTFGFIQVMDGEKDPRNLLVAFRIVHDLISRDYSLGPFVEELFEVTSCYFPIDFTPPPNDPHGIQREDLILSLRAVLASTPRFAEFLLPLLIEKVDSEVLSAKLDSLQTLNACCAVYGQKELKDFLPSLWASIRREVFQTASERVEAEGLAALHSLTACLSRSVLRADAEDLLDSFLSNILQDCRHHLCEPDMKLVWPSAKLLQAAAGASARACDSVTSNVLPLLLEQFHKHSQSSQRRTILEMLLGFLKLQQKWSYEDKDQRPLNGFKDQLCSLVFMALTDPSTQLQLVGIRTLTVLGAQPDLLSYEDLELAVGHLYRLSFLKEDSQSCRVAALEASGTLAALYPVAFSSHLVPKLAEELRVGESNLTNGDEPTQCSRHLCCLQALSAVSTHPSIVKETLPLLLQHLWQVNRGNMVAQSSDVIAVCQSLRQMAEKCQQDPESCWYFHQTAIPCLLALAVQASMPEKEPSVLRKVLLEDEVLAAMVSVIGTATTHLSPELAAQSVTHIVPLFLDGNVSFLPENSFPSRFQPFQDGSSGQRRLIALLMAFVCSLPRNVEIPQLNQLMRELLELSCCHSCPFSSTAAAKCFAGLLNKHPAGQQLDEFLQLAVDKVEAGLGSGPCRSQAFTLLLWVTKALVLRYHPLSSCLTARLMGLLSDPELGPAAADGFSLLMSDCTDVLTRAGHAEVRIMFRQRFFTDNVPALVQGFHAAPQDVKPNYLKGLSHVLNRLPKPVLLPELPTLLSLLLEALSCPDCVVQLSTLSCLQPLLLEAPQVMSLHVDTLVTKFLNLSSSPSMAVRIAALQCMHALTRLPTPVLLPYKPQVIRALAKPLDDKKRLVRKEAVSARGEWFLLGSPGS
# UniProt Q9BSJ8: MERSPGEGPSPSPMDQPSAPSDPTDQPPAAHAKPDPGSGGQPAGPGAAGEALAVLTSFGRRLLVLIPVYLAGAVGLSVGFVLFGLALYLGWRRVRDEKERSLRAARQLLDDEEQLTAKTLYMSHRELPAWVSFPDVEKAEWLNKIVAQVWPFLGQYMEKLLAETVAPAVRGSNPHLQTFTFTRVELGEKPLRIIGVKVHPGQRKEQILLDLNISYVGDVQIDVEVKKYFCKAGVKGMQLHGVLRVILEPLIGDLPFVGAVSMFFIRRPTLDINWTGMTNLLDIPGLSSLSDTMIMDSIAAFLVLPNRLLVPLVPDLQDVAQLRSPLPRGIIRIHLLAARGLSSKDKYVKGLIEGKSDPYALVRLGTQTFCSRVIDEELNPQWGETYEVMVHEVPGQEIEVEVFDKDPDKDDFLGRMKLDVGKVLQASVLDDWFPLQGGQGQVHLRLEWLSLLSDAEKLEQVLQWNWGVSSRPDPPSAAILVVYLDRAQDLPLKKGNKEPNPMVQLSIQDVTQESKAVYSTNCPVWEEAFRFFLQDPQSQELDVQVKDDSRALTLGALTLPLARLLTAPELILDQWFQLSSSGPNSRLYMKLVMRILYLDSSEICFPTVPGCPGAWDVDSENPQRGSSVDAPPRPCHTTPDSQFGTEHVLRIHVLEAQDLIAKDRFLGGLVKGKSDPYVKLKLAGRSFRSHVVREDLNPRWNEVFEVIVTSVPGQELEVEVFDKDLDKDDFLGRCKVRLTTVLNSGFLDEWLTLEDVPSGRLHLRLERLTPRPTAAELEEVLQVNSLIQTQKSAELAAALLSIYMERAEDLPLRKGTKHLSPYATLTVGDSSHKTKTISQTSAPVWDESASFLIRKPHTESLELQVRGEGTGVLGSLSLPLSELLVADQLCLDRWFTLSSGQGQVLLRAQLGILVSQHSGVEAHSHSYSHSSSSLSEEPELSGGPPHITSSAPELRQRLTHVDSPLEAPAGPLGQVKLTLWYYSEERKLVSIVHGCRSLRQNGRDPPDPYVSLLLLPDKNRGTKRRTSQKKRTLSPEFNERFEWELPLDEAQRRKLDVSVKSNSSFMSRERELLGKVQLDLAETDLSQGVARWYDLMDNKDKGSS
# UniProt Q9BWT3: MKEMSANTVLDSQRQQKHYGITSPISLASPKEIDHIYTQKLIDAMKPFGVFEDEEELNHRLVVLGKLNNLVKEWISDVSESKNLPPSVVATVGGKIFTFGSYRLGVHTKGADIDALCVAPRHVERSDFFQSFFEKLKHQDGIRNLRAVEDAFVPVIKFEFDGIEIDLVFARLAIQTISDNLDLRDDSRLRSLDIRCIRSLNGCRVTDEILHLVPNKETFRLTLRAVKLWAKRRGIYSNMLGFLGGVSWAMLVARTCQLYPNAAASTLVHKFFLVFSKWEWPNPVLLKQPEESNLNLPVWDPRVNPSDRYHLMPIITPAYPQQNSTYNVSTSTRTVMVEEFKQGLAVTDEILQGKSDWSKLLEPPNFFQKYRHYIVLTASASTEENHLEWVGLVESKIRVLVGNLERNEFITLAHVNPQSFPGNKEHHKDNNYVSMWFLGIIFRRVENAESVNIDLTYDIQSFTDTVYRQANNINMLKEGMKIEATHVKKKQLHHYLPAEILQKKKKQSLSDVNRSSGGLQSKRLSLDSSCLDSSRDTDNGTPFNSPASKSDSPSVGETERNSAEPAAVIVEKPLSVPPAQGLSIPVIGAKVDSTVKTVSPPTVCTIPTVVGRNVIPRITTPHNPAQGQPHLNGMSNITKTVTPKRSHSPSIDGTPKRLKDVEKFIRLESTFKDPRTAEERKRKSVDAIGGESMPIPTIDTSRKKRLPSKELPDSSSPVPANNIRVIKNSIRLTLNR
# UniProt Q9BXB4: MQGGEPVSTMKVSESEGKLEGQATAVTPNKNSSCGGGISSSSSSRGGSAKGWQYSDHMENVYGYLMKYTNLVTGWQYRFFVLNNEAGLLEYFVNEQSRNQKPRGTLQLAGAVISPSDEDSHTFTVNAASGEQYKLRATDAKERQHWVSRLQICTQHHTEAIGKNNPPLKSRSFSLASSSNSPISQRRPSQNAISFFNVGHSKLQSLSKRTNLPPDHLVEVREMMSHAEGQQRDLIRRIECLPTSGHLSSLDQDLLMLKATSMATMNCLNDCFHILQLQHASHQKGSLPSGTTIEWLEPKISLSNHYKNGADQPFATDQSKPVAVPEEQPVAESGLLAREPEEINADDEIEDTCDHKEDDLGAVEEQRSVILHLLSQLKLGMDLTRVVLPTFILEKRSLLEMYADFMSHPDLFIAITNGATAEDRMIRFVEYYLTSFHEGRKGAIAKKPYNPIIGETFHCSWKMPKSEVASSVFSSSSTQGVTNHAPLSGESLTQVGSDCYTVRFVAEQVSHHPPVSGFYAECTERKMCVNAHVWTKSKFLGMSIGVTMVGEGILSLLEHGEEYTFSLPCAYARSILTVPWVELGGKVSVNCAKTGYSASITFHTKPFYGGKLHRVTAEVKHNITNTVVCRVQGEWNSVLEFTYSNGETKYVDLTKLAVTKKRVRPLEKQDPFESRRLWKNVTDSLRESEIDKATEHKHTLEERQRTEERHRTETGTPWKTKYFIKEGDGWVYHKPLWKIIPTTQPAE
# UniProt Q99595: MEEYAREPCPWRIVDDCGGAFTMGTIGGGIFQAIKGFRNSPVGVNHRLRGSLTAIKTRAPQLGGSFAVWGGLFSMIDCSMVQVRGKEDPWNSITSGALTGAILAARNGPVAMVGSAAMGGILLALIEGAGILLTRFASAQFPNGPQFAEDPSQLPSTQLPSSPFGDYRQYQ
# UniProt Q99828: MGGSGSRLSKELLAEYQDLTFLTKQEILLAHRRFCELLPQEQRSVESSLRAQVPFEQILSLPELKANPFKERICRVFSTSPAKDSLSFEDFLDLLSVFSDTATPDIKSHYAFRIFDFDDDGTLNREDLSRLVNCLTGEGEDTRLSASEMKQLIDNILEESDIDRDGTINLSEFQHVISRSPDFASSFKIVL
# ± gives the standard deviation of the averaged measurements. This is one part of the list.
# Compound: Nc1nc2c(ncn2[C@@H]2O[C@H](COP(=O)(O)OP(=O)(O)OP(=O)(O)O)[C@@H](O)[C@H]2O)c(=O)[nH]1 [guanosine triphosphate]
# Assay: NP40-soluble protein abundance relative to vehicle (solubility fold change) (ratio); higher = more soluble protein in presence of GTP
# Method in brief: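 In three independent experiments, Jurkat crude lysate made by Dounce homogenisation was treated for 10 min at room temperature and then 3 min at 37 °C with eight concentrations ranging from 0.1 to 10 mM. It was then solubilised with 0.8% NP40 plus benzonase for 60 min at 4 °C and ultracentrifuged. The supernatant was TMT-labelled for LC-MS/MS, and each value is the fold change against the detergent-processed vehicle for the same replicate, using vsn-normalised intensities.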
target,measurement,setting,value
PUS7 (UniProt Q96PZ0),NP40-soluble protein abundance,concentration: 0.1mM,0.992 ± 0.013
same,NP40-soluble protein abundance,concentration: 0.5mM,0.992 ± 0.016
same,NP40-soluble protein abundance,concentration: 1mM,0.944 ± 0.046
same,NP40-soluble protein abundance,concentration: 2mM,0.944 ± 0.029
same,NP40-soluble protein abundance,concentration: 4mM,0.907 ± 0.053
same,NP40-soluble protein abundance,concentration: 6mM,0.917 ± 0.022
same,NP40-soluble protein abundance,concentration: 8mM,0.889 ± 0.038
same,NP40-soluble protein abundance,concentration: 10mM,0.892 ± 0.059
UniProt Q9BQC6,NP40-soluble protein abundance,concentration: 0.1mM,1.03 ± 0.13
same,NP40-soluble protein abundance,concentration: 0.5mM,1.14 ± 0.2
same,NP40-soluble protein abundance,concentration: 1mM,1.42 ± 0.42
same,NP40-soluble protein abundance,concentration: 2mM,1.6 ± 0.51
same,NP40-soluble protein abundance,concentration: 4mM,1.52 ± 0.6
same,NP40-soluble protein abundance,concentration: 6mM,1.58 ± 0.53
same,NP40-soluble protein abundance,concentration: 8mM,1.24 ± 0.38
same,NP40-soluble protein abundance,concentration: 10mM,1.49 ± 0.59
THUMPD3 (UniProt Q9BV44),NP40-soluble protein abundance,concentration: 0.1mM,1.01 ± 0.041
same,NP40-soluble protein abundance,concentration: 0.5mM,0.995 ± 0.016
same,NP40-soluble protein abundance,concentration: 1mM,0.963 ± 0.016
same,NP40-soluble protein abundance,concentration: 2mM,0.968 ± 0.05
same,NP40-soluble protein abundance,concentration: 4mM,0.955 ± 0.029
same,NP40-soluble protein abundance,concentration: 6mM,0.957 ± 0.067
same,NP40-soluble protein abundance,concentration: 8mM,0.959 ± 0.041
same,NP40-soluble protein abundance,concentration: 10mM,0.942 ± 0.07
UniProt Q96P48 and related entries,NP40-soluble protein abundance,concentration: 0.1mM,1.09 ± 0.066
same,NP40-soluble protein abundance,concentration: 0.5mM,1.04 ± 0.033
same,NP40-soluble protein abundance,concentration: 1mM,0.994 ± 0.021
same,NP40-soluble protein abundance,concentration: 2mM,1.01 ± 0.054
same,NP40-soluble protein abundance,concentration: 4mM,1.04 ± 0.1
same,NP40-soluble protein abundance,concentration: 6mM,1 ± 0.079
same,NP40-soluble protein abundance,concentration: 8mM,1.01 ± 0.089
same,NP40-soluble protein abundance,concentration: 10mM,0.962 ± 0.035
COPS4 (UniProt Q9BT78),NP40-soluble protein abundance,concentration: 0.1mM,0.898 ± 0.06
same,NP40-soluble protein abundance,concentration: 0.5mM,0.885 ± 0.037
same,NP40-soluble protein abundance,concentration: 1mM,1.01 ± 0.11
same,NP40-soluble protein abundance,concentration: 2mM,1.03 ± 0.1
same,NP40-soluble protein abundance,concentration: 4mM,1.03 ± 0.12
same,NP40-soluble protein abundance,concentration: 6mM,1.01 ± 0.12
same,NP40-soluble protein abundance,concentration: 8mM,0.977 ± 0.073
same,NP40-soluble protein abundance,concentration: 10mM,1.02 ± 0.12
MRPL32 (UniProt Q9BYC8),NP40-soluble protein abundance,concentration: 0.1mM,1.03 ± 0.11
same,NP40-soluble protein abundance,concentration: 0.5mM,1.04 ± 0.092
same,NP40-soluble protein abundance,concentration: 1mM,1.27 ± 0.23
same,NP40-soluble protein abundance,concentration: 2mM,1.4 ± 0.19
same,NP40-soluble protein abundance,concentration: 4mM,1.45 ± 0.32
same,NP40-soluble protein abundance,concentration: 6mM,1.35 ± 0.24
same,NP40-soluble protein abundance,concentration: 8mM,1.37 ± 0.26
same,NP40-soluble protein abundance,concentration: 10mM,1.42 ± 0.39
UniProt Q96MT7-2,NP40-soluble protein abundance,concentration: 0.1mM,1.09 ± 0.063
same,NP40-soluble protein abundance,concentration: 0.5mM,0.959 ± 0.033
same,NP40-soluble protein abundance,concentration: 1mM,1 ± 0.093
same,NP40-soluble protein abundance,concentration: 2mM,0.863 ± 0.12
same,NP40-soluble protein abundance,concentration: 4mM,0.869 ± 0.04
same,NP40-soluble protein abundance,concentration: 6mM,0.915 ± 0.14
same,NP40-soluble protein abundance,concentration: 8mM,0.834 ± 0.052
same,NP40-soluble protein abundance,concentration: 10mM,0.786 ± 0.082
SH3GL1 (UniProt Q99961),NP40-soluble protein abundance,concentration: 0.1mM,0.97 ± 0.018
same,NP40-soluble protein abundance,concentration: 0.5mM,0.922 ± 0.017
same,NP40-soluble protein abundance,concentration: 1mM,0.94 ± 0.021
same,NP40-soluble protein abundance,concentration: 2mM,0.89 ± 0.064
same,NP40-soluble protein abundance,concentration: 4mM,0.891 ± 0.055
same,NP40-soluble protein abundance,concentration: 6mM,0.887 ± 0.037
same,NP40-soluble protein abundance,concentration: 8mM,0.893 ± 0.029
same,NP40-soluble protein abundance,concentration: 10mM,0.901 ± 0.047
UniProt Q96SB8 and related entries,NP40-soluble protein abundance,concentration: 0.1mM,0.992 ± 0.021
same,NP40-soluble protein abundance,concentration: 0.5mM,1.02 ± 0.035
same,NP40-soluble protein abundance,concentration: 1mM,0.985 ± 0.031
same,NP40-soluble protein abundance,concentration: 2mM,1 ± 0.026
same,NP40-soluble protein abundance,concentration: 4mM,0.998 ± 0.033
same,NP40-soluble protein abundance,concentration: 6mM,1.02 ± 0.021
same,NP40-soluble protein abundance,concentration: 8mM,1.04 ± 0.063
same,NP40-soluble protein abundance,concentration: 10mM,1.04 ± 0.062
UniProt Q96T76 and related entries,NP40-soluble protein abundance,concentration: 0.1mM,1.03 ± 0.026
same,NP40-soluble protein abundance,concentration: 0.5mM,1.02 ± 0.12
same,NP40-soluble protein abundance,concentration: 1mM,1.03 ± 0.017
same,NP40-soluble protein abundance,concentration: 2mM,1.01 ± 0.071
same,NP40-soluble protein abundance,concentration: 4mM,0.952 ± 0.11
same,NP40-soluble protein abundance,concentration: 6mM,0.982 ± 0.045
same,NP40-soluble protein abundance,concentration: 8mM,0.988 ± 0.055
same,NP40-soluble protein abundance,concentration: 10mM,0.99 ± 0.13
UniProt Q9BSJ8,NP40-soluble protein abundance,concentration: 0.1mM,1.01 ± 0.035
same,NP40-soluble protein abundance,concentration: 0.5mM,1.02 ± 0.028
same,NP40-soluble protein abundance,concentration: 1mM,0.958 ± 0.021
same,NP40-soluble protein abundance,concentration: 2mM,0.966 ± 0.018
same,NP40-soluble protein abundance,concentration: 4mM,0.943 ± 0.037
same,NP40-soluble protein abundance,concentration: 6mM,0.928 ± 0.011
same,NP40-soluble protein abundance,concentration: 8mM,0.913 ± 0.025
same,NP40-soluble protein abundance,concentration: 10mM,0.916 ± 0.025
PAPOLG (UniProt Q9BWT3),NP40-soluble protein abundance,concentration: 0.1mM,1.055 ± 0.0095
same,NP40-soluble protein abundance,concentration: 0.5mM,1.05 ± 0.089
same,NP40-soluble protein abundance,concentration: 1mM,1.06 ± 0.021
same,NP40-soluble protein abundance,concentration: 2mM,1.11 ± 0.093
same,NP40-soluble protein abundance,concentration: 4mM,1.17 ± 0.11
same,NP40-soluble protein abundance,concentration: 6mM,1.16 ± 0.11
same,NP40-soluble protein abundance,concentration: 8mM,1.19 ± 0.17
same,NP40-soluble protein abundance,concentration: 10mM,1.16 ± 0.12
OSBPL11 (UniProt Q9BXB4),NP40-soluble protein abundance,concentration: 0.1mM,1.03 ± 0.071
same,NP40-soluble protein abundance,concentration: 0.5mM,1.09 ± 0.014
same,NP40-soluble protein abundance,concentration: 1mM,1.057 ± 0.0077
same,NP40-soluble protein abundance,concentration: 2mM,1.04 ± 0.048
same,NP40-soluble protein abundance,concentration: 4mM,0.992 ± 0.033
same,NP40-soluble protein abundance,concentration: 6mM,1.06 ± 0.0075
same,NP40-soluble protein abundance,concentration: 8mM,1.03 ± 0.031
same,NP40-soluble protein abundance,concentration: 10mM,0.988 ± 0.018
TIMM17A (UniProt Q99595),NP40-soluble protein abundance,concentration: 0.1mM,0.859 ± 0.014
same,NP40-soluble protein abundance,concentration: 0.5mM,0.88364 ± 5.3e-05
same,NP40-soluble protein abundance,concentration: 1mM,0.8359 ± 0.0039
same,NP40-soluble protein abundance,concentration: 2mM,0.85 ± 0.058
same,NP40-soluble protein abundance,concentration: 4mM,0.851 ± 0.064
same,NP40-soluble protein abundance,concentration: 6mM,0.869 ± 0.029
same,NP40-soluble protein abundance,concentration: 8mM,0.83 ± 0.087
same,NP40-soluble protein abundance,concentration: 10mM,0.882 ± 0.051
UniProt Q99828 and related entries,NP40-soluble protein abundance,concentration: 0.1mM,0.956 ± 0.08
same,NP40-soluble protein abundance,concentration: 0.5mM,0.981 ± 0.11
same,NP40-soluble protein abundance,concentration: 1mM,1.02 ± 0.081
same,NP40-soluble protein abundance,concentration: 2mM,1.02 ± 0.084
same,NP40-soluble protein abundance,concentration: 4mM,1.02 ± 0.092
same,NP40-soluble protein abundance,concentration: 6mM,1 ± 0.12
same,NP40-soluble protein abundance,concentration: 8mM,0.996 ± 0.11
same,NP40-soluble protein abundance,concentration: 10mM,0.911 ± 0.12

# Given tab-delimited: entries from further up.
target	measurement	setting	value
PUS7 (UniProt Q96PZ0)	NP40-soluble protein abundance	concentration: 6mM	0.917 ± 0.022
same	NP40-soluble protein abundance	concentration: 8mM	0.889 ± 0.038
same	NP40-soluble protein abundance	concentration: 10mM	0.892 ± 0.059
UniProt Q9BQC6	NP40-soluble protein abundance	concentration: 0.1mM	1.03 ± 0.13
same	NP40-soluble protein abundance	concentration: 0.5mM	1.14 ± 0.2
same	NP40-soluble protein abundance	concentration: 1mM	1.42 ± 0.42
same	NP40-soluble protein abundance	concentration: 2mM	1.6 ± 0.51

# Exported with tabs: entries from further up.
target	measurement	setting	value
UniProt Q9BQC6	NP40-soluble protein abundance	concentration: 0.1mM	1.03 ± 0.13
UniProt Q99828 and related entries	NP40-soluble protein abundance	concentration: 0.1mM	0.956 ± 0.08
